Reference: patent publication US20040053231A1
These are yes or no findings as the source states them, for the method shown. In cells and extracts the contact can be indirect. Some binding calls cover weakened binding; strength is not graded here. Blank lines part the entries; values can stand above or below the binder they belong to.

By UniProt entry, the sequences of proteins in these tests, tags left out. Residues count along the entry.
UniProt Q09472, residues 300-528: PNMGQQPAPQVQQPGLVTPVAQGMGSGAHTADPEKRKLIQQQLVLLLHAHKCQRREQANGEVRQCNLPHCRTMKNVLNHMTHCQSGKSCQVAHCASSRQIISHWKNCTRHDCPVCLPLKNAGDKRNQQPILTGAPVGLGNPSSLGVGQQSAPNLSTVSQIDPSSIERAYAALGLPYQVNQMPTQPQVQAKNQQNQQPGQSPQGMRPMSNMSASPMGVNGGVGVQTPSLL

Experiments:
[1] = target: GST-p300CH1 (p300 residues 300-528) (UniProt Q09472); assay: GST pull-down of 35S-labelled protein on GST-p300CH1 (FIG. 2A)
[2] = target: GST-p300CH1 (p300 residues 300-528) (UniProt Q09472); assay: GST pull-down of 35S-labelled in vitro translated protein on GST-p300CH1
[3] = target: GST-p300CH1 (p300 residues 300-528) (UniProt Q09472); assay: GST pull-down: 35S-labelled in vitro translated HCITEDX on GST tagged p300 (CH1 domain) on glutathione beads, SDS-PAGE and autoradiography
[4] = target: GST-p300CH1 (p300 residues 300-528) (UniProt Q09472); assay: GST-p300CH1 pull-down with peptide competition
[5] = target: GST-p300CH1 (p300 residues 300-528) (UniProt Q09472); assay: GST pull-down of 35S-labelled SREBP2 (1-462) on GST-CH1

binding [1]: binds
binding [2]: binds
binding [3]: binds
B1: HCITEDX (protein)
chain: MADHLMLAEGYRLVQRPPSAAAAHGPHALRTLPPYAGPGLDSGLRPRGAPLGPPPPRQPGALAYGAFGPPSSFQPFPAVPPPAAGIAHLQPVATPYPGRAAAPPNAPGGPPGPQPAPSAAAPPPPAHALGGMDAELIDEEALTSLELELGLHRVRELPELFLGQSEFDCFSDLGSAPPAGSVSC
modifications: 35S-labelled (in vitro translated) in the GST pull-down assays

binding [4]: binds
binding [5]: binds
B2: SREBP2 (residues 1-462) (protein, human, UniProt Q12772 1-462, looked up)
chain: MDDSGELGGLETMETLTELGDELTLGDIDEMLQFVSNQVGEFPDLFSEQLCSSFPGSGGSGSSSGSSGSSSSSSNGRGSSSGAVDPSVQRSFTQVTLPSFSPSAASPQAPTLQVKVSPTSVPTTPRATPILQPRPQPQPQPQTQLQQQTVMITPTFSTTPQTRIIQQPLIYQNAATSFQVLQPQVQSLVTSSQVQPVTIQQQVQTVQAQRVLTQTANGTLQTLAPATVQTVAAPQVQQVPVLVQPQIIKTDSLVLTTLKTDGSPVMAAVQNPALTALTTPIQTAALQVPTLVGSSGTILTTMPVMMGQEKVPIKQVPGGVKQLEPPKEGERRTTHNIIEKRYRSSINDKIIELKDLVMGTDAKMHKSGVLRKAIDYIKYLQQVNHKLRQENMVLKLANQKNKLLKGIDLGSLVDNEVDLKIEDFNQNVLLMSPPASDSGSQAGFSPYSIDSEPGSPLLDDAK
modifications: 35S-labelled (in vitro translated)
